Experimental data taken from paper PMC9637104.
No constants are given. Whether binding was seen depends on the method and setting. In cells and extracts the contact can be indirect. A yes stands for co-enrichment or nearness to the bait. Other partners may have been found.

The chains behind the UniProt entries cited, without tags or fusion partners.
UniProt Q8C9H6: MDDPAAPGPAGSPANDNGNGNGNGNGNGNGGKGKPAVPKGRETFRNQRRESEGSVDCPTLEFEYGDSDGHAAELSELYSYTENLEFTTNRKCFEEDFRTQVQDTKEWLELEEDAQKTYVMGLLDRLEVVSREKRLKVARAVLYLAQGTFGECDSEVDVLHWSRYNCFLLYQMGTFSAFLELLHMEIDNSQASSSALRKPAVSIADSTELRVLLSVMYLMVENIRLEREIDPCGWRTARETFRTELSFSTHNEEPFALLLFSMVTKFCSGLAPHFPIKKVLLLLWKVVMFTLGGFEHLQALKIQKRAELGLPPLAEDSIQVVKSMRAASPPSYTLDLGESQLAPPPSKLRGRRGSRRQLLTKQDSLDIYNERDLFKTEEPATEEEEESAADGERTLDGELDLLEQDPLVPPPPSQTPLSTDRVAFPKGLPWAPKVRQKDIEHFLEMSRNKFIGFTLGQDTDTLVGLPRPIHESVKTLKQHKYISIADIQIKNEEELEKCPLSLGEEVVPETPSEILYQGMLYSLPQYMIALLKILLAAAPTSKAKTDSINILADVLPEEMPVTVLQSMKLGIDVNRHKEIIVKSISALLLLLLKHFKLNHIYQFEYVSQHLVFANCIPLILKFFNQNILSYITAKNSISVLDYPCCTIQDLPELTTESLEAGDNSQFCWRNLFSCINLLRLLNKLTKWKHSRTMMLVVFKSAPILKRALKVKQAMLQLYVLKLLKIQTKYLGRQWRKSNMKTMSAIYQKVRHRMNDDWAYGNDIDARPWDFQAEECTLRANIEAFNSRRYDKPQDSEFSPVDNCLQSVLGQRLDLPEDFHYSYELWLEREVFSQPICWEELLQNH
UniProt O09106: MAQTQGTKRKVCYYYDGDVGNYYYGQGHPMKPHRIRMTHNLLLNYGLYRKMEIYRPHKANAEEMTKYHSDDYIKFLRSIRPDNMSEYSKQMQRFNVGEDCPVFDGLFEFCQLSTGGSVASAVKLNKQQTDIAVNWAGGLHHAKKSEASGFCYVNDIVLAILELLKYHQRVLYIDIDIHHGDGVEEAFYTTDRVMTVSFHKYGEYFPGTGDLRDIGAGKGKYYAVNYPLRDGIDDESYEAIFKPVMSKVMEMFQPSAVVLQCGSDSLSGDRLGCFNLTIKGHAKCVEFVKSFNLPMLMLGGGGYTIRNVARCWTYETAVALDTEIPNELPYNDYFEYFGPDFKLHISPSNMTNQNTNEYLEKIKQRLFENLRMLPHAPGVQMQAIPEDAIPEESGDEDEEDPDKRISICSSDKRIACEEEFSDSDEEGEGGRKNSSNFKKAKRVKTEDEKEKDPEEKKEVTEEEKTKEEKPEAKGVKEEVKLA
UniProt Q61686: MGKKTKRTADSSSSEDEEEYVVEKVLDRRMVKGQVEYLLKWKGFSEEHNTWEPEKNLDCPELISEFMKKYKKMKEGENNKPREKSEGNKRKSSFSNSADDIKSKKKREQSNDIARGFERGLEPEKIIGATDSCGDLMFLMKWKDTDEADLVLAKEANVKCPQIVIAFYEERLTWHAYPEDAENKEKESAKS

Each substance was assayed against Strip2-turboGFP (mouse) (UniProt Q8C9H6) (assay: affinity purification with mass spectrometry; TurboGFP-Trap agarose on RIPA lysates of Strip2-turboGFP ESCs (0-day ESCs, 4-day and 16-day EBs), 1 h at 4 °C; GFP-only ESCs as control; label-free quantification).

Row | Substance | binding
1 | DNA (cytosine-5)-methyltransferase 3 beta (Dnmt3b) (from UniProt O88509 1-859) | binds
2 | Hadc1 (from UniProt O09106 1-482) | binds
3 | heterochromatin protein 1 (HP1; also known as Cbx5) (from UniProt Q61686 1-191) | binds
